Assay results reported in patent publication US20170173002A1, “Compositions and Methods for Treating an Infection” (CMPD LICENSING, LLC, priority 2015, published 2017).

System: Mycoplasma pneumoniae
Test: Expected efficacy of antibiotic agents
Conditions: expected efficacy against Mycoplasma pneumoniae

With `O=C(O)c1cn(C2CC2)c2cc(N3CCNCC3)c(F)cc2c1=O` [Ciprofloxacin, ciprofloxacin] the Efficacy was “yes”.
